Laboratory results taken from the supplement of paper PMC12889115.
This is one part of the list. Values are raw readings; no control value is given beside them.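 In the initial screen, polymyxin B was used at a concentration that permeabilizes Salmonella's outer membrane but not its inner membrane. Maximum growth was set by DMSO wells with or without polymyxin B. Since plates varied, data were ranked per plate, and compounds giving the lowest OD600 advanced as hits.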

Tested on: Salmonella enterica serovar Typhimurium SL1344
Experiment: bacterial growth OD600 after 18 h with compound and polymyxin B; higher = more bacterial growth (less inhibition)
Settings: 50 µM, Mueller-Hinton broth

Structure (SMILES) | bacterial growth OD600 (polymyxin B 1 µg/mL) | bacterial growth OD600 (polymyxin B 0.75 µg/mL)
CC#CC(=O)NC1CC(=O)N(Cc2cccc3ccccc23)C1 (configuration not stated) | 0.945 | –
COc1ccc2ccc(OCc3nc(C(=O)NC4CCCC4)co3)cc2c1 | 0.86 | –
CCn1nc(C)c(CNC(=O)C2(N(C)C)Cc3ccccc3C2)c1C | 1.23 | –
CC(=O)N1CCCC(CCc2ccccc2C)C1 (configuration not stated) | – | 0.59
COc1ccc(C(=O)NCc2cccnc2Oc2ccc(C)nc2)cc1 | – | 0.82
CC(NC(=O)c1ccccc1OC1CCN(S(C)(=O)=O)CC1)c1ccccc1 (configuration not stated) | 0.931 | –
Cc1ccc(C(=O)N2CCCC(N3CCN(c4ccc(F)cc4)CC3)C2)c(C)c1 (configuration not stated) | 0.788 | –
COc1ccc(CNC(=O)C2(N3C[C@@H](C)O[C@@H](C)C3)Cc3ccccc3C2)cc1 | 1.05 | –
COc1cccc(CC2=NOC(C(=O)NCc3cccc(F)c3F)C2)c1 (configuration not stated) | – | 0.965
Cc1nc(C)c(C(=O)N2CCc3c(cnc(C)c3CNC(=O)/C=C/c3cccs3)C2)s1 | – | 0.78
O=C(NCc1ccon1)c1coc(COc2ccccc2)n1 | – | 0.853
CCCN(CC1CC1)C(=O)c1cn(C2CCCCC2)nn1 | 0.898 | –
CCOC(=O)C1CCCN(C(=O)c2cc(Cn3nc(C)cc3C)[nH]n2)C1 (configuration not stated) | 1.19 | –
O[C@@H]1CN(Cc2ccccc2OC2CCCC2)CC[C@H]1N1CCN(c2ccccn2)CC1 | – | 0.771
O=C(CCc1ccco1)N1CCOC(Cc2cccc(C(F)(F)F)c2)C1 (configuration not stated) | – | 0.822
COc1ccc(CN2CCN(Cc3ccc(C)s3)CC2CCO)cc1C (configuration not stated) | 0.9 | –

2 entries from above, in CSV form:
Structure (SMILES),bacterial growth OD600 (polymyxin B 1 µg/mL),bacterial growth OD600 (polymyxin B 0.75 µg/mL)
Cc1nc(C)c(C(=O)N2CCc3c(cnc(C)c3CNC(=O)/C=C/c3cccs3)C2)s1,–,0.78
O=C(NCc1ccon1)c1coc(COc2ccccc2)n1,–,0.853

(next part)

Structure (SMILES) | bacterial growth OD600 (polymyxin B 1 µg/mL) | bacterial growth OD600 (polymyxin B 0.75 µg/mL)
COCCn1cnc2cc(NC(=O)C3CCCCC3)cc(C(=O)NCC3CCOCC3)c21 | – | 0.836
COc1ccc(CNC2CCCc3c2cnn3-c2ccccn2)c(F)c1 (configuration not stated) | – | 0.884
Cc1nc(N2CCCCCCC2)ncc1C(C)NC(=O)C1=NNC(=O)CC1 (configuration not stated) | – | 0.94
COCC(=O)Nc1cc(C(=O)NCCC2=CC[C@H]3C[C@@H]2C3(C)C)cc2nc(-c3cccnc3)n(C)c12 | – | 1.03
Cc1csc(C(C)N(C)C(=O)CC2(c3ccccc3C)CC(=O)N(Cc3cccnc3)C2=O)n1 (configuration not stated) | – | 0.791
CCc1ocnc1C(=O)NCc1cccnc1N(C)C | 0.875 | –
CN(Cc1ccsc1)c1ccc(C(=O)N2CCCN(c3ncccn3)CC2)cn1 | – | 0.788
CCn1ccnc1CNC(C)c1cnc(N(C)C2CCCCC2)nc1C (configuration not stated) | – | 0.614
CCOC(=O)C1(CCc2ccccc2)CCN(C(=O)c2cnn3cccnc23)CC1 | 0.777 | –
COCCN1CCN(C(=O)c2csc3nc(-c4cccc(F)c4)cn23)CC1 | 1.21 | –
O=C(CCC1(Cc2cccs2)CCC(=O)N1)NCc1cnn(Cc2ccccc2)c1 (configuration not stated) | – | 0.841
Cc1ccc2c(c1)CN(CCC(=O)NC1CCN(Cc3ccccc3)CC1)CC(C)O2 (configuration not stated) | – | 0.842
Cc1ccccc1CCC1CCCN(C(=O)C(C)C)C1 (configuration not stated) | – | 0.5
O=C(Nc1ccnn1C1CCN(C2CSCCSC2)CC1)C1CCCC1 | – | 0.879
CCC(=O)C1CCCN(C(=O)CC2(c3ccccc3)CC(=O)N(Cc3ccc4c(c3)OCO4)C2=O)C1 (configuration not stated) | – | 0.095
CN(Cc1ccc2nccnc2c1)C(=O)CCC1(Cc2ccc(-c3ccccc3)cc2)CCC(=O)N1 (configuration not stated) | – | 0.743
